Our source for the binding values is article PMC4735692.

No constants are given. Whether binding was seen depends on the method and setting. In cells and extracts the contact can be indirect. Binding can be weak; no strength is given. Where a sequence is shown, tags or fusion partners need not be part of it.

The target in the assay is ZF motif of RAP80 (GST pulldown). As to the kind of experiment: pull-down; GST pulldown with a GST fusion of one domain (Supplementary Fig. 3A,B); conditions not given.

B1: TRAIP (partner in the RAP80 ZF GST pulldown) (protein, UniProt Q9BWF2 1-469)
chain: MPIRALCTICSDFFDHSRDVAAIHCGHTFHLQCLIQWFETAPSRTCPQCRIQVGKRTIINKLFFDLAQEEENVLDAEFLKNELDNVRAQLSQKDKEKRDSQVIIDTLRDTLEERNATVVSLQQALGKAEMLCSTLKKQMKYLEQQQDETKQAQEEARRLRSKMKTMEQIELLLQSQRPEVEEMIRDMGVGQSAVEQLAVYCVSLKKEYENLKEARKASGEVADKLRKDLFSSRSKLQTVYSELDQAKLELKSAQKDLQSADKEIMSLKKKLTMLQETLNLPPVASETVDRLVLESPAPVEVNLKLRRPSFRDDIDLNATFDVDTPPARPSSSQHGYYEKLCLEKSHSPIQDVPKKICKGPRKESQLSLGGQSCAGEPDEELVGAFPIFVRNAILGQKQPKRPRSESSCSKDVVRTGFDGLGGRTKFIQPTDTVMIRPLPVKPKTKVKQRVRVKTVPSLFQAKLDTFLWS
Regarding B1, the binding entry is on record as “binds”.
